PubChem BioAssay AID1259308, NCATS | 2017
Aim: 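Genes whose loss raises luciferase production in HEK293 cells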 (primary screen). Cell system: human HEK293 embryonic kidney cells stably expressing firefly luciferase (HEK-CMV-Luc2-Hygro). Reagents: single siRNA against human genes, 0.8 pmol siRNA per well. Timing: 72 h. Measurement: 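Reporter luminescence and viable-cell signal on separate replicate plates, given as percent of non-targeting control and median/MAD z-scores, plus per-cell luciferase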. Scale: total luciferase, z-score and total luciferase, % of control: higher = more reporter protein produced; luciferase per cell, z-score: higher = more reporter output per viable cell. Rule for the call: 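Active when the median/MAD z-score for overall luciferase is greater than 3; a gene was taken forward for validation with new siRNAs if at least two of its three siRNAs passed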. Meaning of the calls: active = raised luciferase; inactive = no rise.
The whole screen tested about 59,000 reagents; shown is a part drawn at random. About 1,510 of all reagents (2.6%) were called active. 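Calls use total luciferase alone and ignore viability, so some active siRNAs may act by altering cell number.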 The numbers tell different reagents against one gene apart. Not all columns of the deposit are shown.

The opening 2 entries, ahead of the listing:
no.	gene	siRNA no.	total luciferase, z-score	total luciferase, % of control	luciferase per cell, z-score	call
1	SMU1 (SMU1 DNA replication regulator and spliceosomal factor)	1	0.0207	82.3	2.93	inactive
2	SMU1 (SMU1 DNA replication regulator and spliceosomal factor)	2	0.663	95.1	1.72	inactive

Results, from the start:
no.	gene	siRNA no.	total luciferase, z-score	total luciferase, % of control	luciferase per cell, z-score	call
1	SMU1 (SMU1 DNA replication regulator and spliceosomal factor)	1	0.0207	82.3	2.93	inactive
2	SMU1 (SMU1 DNA replication regulator and spliceosomal factor)	2	0.663	95.1	1.72	inactive
3	SMU1 (SMU1 DNA replication regulator and spliceosomal factor)	3	0.317	88.2	2.28	inactive
4	ST3GAL6 (ST3 beta-galactoside alpha-2,3-sialyltransferase 6)	1	0.079	83.5	0.203	inactive
5	ST3GAL6 (ST3 beta-galactoside alpha-2,3-sialyltransferase 6)	2	-0.262	76.7	-0.378	inactive
6	ST3GAL6 (ST3 beta-galactoside alpha-2,3-sialyltransferase 6)	3	0.0341	82.6	-0.402	inactive
7	FPGS (folylpolyglutamate synthase)	1	1.08	103	0.752	inactive
8	FPGS (folylpolyglutamate synthase)	2	1.28	107	1.64	inactive
9	FPGS (folylpolyglutamate synthase)	3	1.37	109	0.373	inactive
10	ODF2 (outer dense fiber of sperm tails 2)	1	-0.919	63.6	-0.949	inactive
11	ODF2 (outer dense fiber of sperm tails 2)	2	-0.56	70.7	-0.594	inactive
12	ODF2 (outer dense fiber of sperm tails 2)	3	1.65	115	0.85	inactive
13	C21orf91 (chromosome 21 open reading frame 91)	1	-2.44	33.3	-3.2	inactive
14	C21orf91 (chromosome 21 open reading frame 91)	2	1.3	108	1.17	inactive
15	C21orf91 (chromosome 21 open reading frame 91)	3	1.91	120	1.57	inactive
16	GFI1B (growth factor independent 1B transcriptional repressor)	1	0.567	93.2	0.822	inactive
17	GFI1B (growth factor independent 1B transcriptional repressor)	2	-1.15	59	-1.14	inactive
18	GFI1B (growth factor independent 1B transcriptional repressor)	3	-1.3	55.9	-0.975	inactive
19	PLPP6 (phospholipid phosphatase 6)	1	0.719	96.2	1.39	inactive
20	PLPP6 (phospholipid phosphatase 6)	2	-0.246	77	-0.218	inactive
21	PLPP6 (phospholipid phosphatase 6)	3	2.39	129	0.845	inactive
22	ACTA2 (actin alpha 2, smooth muscle)	1	-1.4	54.1	-0.427	inactive
23	ACTA2 (actin alpha 2, smooth muscle)	2	0.379	89.4	-0.497	inactive
24	ACTA2 (actin alpha 2, smooth muscle)	3	0.906	99.9	1.25	inactive
